Results on eight molecules are retold here after publication doi:10.1101/2020.11.14.382416.

Sequences of proteins named here, by UniProt entry; tags and fusion partners are left off.
UniProt Q9Z148: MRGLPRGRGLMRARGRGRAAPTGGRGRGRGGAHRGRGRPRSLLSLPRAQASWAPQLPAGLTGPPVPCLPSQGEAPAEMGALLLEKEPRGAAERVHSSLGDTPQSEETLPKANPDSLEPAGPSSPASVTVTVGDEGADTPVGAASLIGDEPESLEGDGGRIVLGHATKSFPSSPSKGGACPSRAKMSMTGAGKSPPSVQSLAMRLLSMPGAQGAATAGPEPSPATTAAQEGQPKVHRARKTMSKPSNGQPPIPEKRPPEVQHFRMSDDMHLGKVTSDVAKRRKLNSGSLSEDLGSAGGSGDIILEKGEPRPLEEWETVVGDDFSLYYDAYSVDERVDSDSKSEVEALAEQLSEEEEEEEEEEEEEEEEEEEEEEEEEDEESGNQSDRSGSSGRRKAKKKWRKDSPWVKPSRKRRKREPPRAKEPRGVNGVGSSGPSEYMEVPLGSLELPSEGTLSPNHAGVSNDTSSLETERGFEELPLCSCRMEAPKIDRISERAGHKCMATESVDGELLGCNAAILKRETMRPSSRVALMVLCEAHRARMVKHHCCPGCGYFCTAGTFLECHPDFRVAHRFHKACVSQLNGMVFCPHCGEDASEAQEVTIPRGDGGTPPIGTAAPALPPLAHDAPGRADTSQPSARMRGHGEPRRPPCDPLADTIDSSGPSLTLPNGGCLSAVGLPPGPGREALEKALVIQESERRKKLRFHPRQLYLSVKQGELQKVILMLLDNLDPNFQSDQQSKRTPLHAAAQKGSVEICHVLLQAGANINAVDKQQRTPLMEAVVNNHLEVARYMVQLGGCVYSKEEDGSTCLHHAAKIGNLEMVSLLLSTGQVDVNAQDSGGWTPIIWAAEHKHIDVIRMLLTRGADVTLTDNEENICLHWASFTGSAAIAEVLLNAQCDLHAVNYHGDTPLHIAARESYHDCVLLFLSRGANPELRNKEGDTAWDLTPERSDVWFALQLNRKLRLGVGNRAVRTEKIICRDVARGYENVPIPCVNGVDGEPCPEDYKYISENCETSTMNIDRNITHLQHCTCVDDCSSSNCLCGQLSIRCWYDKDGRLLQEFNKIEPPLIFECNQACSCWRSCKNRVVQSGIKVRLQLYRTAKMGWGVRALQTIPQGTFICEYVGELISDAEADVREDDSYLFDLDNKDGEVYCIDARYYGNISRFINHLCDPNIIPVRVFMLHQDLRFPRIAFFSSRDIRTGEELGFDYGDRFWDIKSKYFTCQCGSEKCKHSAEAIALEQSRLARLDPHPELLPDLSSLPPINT
UniProt Q7JJ13: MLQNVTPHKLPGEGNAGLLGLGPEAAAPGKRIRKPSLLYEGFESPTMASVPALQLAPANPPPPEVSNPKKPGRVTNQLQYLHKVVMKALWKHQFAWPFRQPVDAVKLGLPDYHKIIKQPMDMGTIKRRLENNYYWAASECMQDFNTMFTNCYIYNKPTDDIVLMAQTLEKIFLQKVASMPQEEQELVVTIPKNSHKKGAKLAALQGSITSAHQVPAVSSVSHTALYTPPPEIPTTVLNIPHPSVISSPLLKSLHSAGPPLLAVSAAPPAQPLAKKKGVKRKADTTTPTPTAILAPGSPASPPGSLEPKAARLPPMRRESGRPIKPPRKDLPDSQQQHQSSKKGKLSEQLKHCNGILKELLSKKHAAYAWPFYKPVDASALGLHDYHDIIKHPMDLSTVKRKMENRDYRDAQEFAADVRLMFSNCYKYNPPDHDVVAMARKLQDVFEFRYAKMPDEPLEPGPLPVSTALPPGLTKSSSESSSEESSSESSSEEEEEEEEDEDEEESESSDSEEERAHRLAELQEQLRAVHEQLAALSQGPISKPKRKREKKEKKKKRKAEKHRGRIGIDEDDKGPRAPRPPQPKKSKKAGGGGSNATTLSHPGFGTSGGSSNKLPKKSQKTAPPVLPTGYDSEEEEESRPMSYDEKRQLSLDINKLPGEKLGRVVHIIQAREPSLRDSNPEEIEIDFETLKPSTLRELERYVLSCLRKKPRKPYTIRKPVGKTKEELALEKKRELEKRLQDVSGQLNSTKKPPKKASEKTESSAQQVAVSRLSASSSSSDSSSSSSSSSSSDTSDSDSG
UniProt Q921E6: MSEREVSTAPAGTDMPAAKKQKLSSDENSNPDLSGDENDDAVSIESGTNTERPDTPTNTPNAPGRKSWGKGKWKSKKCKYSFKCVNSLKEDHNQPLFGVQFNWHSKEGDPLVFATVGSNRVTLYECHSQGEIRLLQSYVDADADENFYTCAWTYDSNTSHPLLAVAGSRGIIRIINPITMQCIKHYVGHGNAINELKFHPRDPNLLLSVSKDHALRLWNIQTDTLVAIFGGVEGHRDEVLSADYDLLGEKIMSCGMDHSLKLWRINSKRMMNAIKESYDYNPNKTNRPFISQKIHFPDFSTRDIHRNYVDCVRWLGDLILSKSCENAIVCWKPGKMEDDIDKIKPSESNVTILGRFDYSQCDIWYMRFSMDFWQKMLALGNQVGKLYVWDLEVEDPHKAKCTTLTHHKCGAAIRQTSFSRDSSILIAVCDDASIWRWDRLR
UniProt Q6DIC0: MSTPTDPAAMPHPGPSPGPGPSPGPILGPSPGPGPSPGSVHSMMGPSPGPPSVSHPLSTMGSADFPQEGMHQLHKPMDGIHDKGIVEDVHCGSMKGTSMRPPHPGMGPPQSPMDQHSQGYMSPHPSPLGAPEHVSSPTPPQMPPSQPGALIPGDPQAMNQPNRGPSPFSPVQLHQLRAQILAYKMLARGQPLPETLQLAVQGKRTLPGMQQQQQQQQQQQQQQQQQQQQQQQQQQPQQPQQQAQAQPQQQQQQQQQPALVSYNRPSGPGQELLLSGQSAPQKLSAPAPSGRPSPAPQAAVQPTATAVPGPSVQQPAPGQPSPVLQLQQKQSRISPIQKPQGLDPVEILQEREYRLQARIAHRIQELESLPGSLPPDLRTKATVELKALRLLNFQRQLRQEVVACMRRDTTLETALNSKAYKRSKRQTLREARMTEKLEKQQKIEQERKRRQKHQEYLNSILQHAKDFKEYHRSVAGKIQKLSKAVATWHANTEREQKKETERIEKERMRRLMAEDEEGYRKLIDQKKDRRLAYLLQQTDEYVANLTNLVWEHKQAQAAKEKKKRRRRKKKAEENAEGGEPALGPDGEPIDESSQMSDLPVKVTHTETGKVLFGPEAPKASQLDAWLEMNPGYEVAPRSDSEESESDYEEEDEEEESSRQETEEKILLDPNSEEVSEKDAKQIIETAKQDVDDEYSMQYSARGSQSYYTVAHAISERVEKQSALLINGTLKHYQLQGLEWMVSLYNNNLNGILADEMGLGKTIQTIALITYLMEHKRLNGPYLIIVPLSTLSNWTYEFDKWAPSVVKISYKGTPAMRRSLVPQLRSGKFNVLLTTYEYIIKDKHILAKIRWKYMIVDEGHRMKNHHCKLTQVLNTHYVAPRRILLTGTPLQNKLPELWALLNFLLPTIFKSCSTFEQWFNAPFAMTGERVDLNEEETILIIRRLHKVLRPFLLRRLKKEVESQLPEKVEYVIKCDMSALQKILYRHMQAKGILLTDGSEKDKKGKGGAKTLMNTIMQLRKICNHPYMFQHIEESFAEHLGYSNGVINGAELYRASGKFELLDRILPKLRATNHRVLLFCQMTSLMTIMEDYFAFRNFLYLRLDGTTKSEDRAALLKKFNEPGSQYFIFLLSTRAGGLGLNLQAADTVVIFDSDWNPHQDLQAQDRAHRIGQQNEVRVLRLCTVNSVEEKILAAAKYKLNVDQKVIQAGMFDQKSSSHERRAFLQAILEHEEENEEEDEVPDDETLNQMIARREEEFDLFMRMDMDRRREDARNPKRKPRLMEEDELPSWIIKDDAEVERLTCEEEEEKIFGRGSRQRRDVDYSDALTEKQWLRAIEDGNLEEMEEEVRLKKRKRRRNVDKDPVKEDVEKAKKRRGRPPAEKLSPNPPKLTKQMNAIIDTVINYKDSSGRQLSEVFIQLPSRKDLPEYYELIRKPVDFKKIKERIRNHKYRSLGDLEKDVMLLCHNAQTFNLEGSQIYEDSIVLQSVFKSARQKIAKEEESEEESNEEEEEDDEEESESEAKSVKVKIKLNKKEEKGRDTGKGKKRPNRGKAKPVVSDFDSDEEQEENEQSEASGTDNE
UniProt Q3TKT4: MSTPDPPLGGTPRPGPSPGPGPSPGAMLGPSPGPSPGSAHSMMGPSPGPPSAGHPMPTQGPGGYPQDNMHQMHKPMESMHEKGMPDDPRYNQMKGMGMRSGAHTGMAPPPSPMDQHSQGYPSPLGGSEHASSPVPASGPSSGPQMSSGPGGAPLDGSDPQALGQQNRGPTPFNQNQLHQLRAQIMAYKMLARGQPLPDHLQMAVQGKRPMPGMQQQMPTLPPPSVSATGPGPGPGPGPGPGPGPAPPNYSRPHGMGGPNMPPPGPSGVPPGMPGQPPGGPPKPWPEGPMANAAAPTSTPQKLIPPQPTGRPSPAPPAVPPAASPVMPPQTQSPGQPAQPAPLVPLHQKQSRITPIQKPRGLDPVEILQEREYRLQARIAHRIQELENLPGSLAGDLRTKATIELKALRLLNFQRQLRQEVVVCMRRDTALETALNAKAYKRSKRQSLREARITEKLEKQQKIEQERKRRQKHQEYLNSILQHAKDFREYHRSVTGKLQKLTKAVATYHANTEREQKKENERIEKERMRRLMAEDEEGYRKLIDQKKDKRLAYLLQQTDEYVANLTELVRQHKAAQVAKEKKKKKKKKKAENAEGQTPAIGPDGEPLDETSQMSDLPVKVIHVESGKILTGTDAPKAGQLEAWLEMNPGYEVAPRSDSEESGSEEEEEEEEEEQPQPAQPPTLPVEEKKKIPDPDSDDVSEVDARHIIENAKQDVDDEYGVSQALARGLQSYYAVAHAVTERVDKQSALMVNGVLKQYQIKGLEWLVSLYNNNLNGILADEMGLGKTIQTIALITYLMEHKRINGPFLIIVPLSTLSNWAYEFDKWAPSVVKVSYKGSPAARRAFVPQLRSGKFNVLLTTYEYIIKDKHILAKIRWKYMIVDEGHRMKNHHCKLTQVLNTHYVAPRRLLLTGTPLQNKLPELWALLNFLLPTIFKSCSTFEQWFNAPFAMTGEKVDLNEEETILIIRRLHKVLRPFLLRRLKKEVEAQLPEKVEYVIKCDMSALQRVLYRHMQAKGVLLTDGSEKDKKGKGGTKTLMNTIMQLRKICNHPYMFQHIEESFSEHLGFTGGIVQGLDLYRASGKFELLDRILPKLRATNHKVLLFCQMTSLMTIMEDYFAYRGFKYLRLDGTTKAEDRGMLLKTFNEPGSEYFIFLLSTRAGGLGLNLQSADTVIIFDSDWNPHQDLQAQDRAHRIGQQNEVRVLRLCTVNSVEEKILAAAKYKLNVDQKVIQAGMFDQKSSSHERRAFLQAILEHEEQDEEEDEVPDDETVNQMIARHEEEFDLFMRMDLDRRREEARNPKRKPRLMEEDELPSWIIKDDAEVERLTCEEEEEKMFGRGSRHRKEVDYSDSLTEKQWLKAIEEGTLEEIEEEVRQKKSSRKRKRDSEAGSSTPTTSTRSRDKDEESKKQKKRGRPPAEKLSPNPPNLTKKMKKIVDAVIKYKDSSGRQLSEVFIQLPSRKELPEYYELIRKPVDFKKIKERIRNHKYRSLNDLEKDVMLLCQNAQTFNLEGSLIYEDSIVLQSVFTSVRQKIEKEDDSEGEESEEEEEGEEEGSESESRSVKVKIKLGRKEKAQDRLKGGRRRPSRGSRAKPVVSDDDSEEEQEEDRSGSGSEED
UniProt Q61188: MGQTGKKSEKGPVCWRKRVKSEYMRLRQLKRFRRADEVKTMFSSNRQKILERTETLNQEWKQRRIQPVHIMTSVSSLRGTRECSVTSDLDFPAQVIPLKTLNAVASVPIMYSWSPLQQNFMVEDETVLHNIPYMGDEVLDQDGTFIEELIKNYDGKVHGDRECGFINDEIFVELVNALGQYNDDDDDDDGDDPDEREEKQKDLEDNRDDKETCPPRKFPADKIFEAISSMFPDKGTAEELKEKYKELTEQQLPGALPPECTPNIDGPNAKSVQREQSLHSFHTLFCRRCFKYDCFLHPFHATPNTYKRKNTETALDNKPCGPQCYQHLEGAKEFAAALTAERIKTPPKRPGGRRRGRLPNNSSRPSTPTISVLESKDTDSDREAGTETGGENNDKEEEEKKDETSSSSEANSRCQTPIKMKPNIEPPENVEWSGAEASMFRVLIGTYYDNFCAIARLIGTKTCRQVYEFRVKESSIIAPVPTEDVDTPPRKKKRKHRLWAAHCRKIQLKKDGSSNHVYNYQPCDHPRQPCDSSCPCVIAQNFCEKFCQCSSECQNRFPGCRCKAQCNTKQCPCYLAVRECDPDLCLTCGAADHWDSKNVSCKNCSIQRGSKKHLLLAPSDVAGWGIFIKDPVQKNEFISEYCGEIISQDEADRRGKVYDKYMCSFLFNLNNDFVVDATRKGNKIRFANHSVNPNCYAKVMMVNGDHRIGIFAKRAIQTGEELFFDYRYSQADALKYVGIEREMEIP

Assay [1] concerns the target G9a (EHMT2), endogenous, captured by the biotinylated G9a inhibitor UNC0965 (mouse (endogenous in Raw 264.7)) (UniProt Q9Z148). The assay is described as follows: affinity purification with mass spectrometry.
Assay [2] has the same target. The assay is described as follows: affinity purification with mass spectrometry. This is another data set of the same source.

Where two headings read alike, the source gives them in different places. These are yes or no findings as the source states them, for the method shown. Binding seen in cells or lysates may run through a third protein. Here binding means that the protein was enriched with, or labelled near, the bait; the list need not be complete.

In the case of BRD2 (from UniProt Q7JJ13 1-798), the binding result in assay [1] is given as “binds”.

For the molecule CREBBP (from UniProt P45481 1-2441), the binding entry in assay [1] is “binds”.

In the case of EED (from UniProt Q921E6 1-441), the binding entry in assay [1] was “binds”.

On to SMARCA2 (from UniProt Q6DIC0 1-1577), for which, in assay [1], the binding result was “binds”.

With SMARCA4 (from UniProt Q3TKT4 1-1613), in assay [1], the binding result is listed as “binds”.

For the molecule SUZ12 (from UniProt Q80U70 1-741), the binding entry in assay [1] is on record as “binds”.

Consider “histone methyltransferase Ezh2 (Enhancer of zeste homolog 2) (from UniProt Q61188 1-746) (enzyme)”, for which the binding result in assay [1] is given as “binds”.

B1: splicing factor SF3B1 (protein, UniProt Q99NB9 1-1304)
chain: MAKIAKTHEDIEAQIREIQGKKAALDEAQGVGLDSTGYYDQEIYGGSDSRFAGYVTSIAATELEDDDDDYSSSTSLLGQKKPGYHAPVALLNDIPQSTEQYDPFAEHRPPKIADREDEYKKHRRTMIISPERLDPFADGGKTPDPKMNARTYMDVMREQHLTKEEREIRQQLAEKAKAGELKVVNGAAASQPPSKRKRRWDQTADQTPGATPKKLSSWDQAETPGHTPSLRWDETPGRAKGSETPGATPGSKIWDPTPSHTPAGAATPGRGDTPGHATPGHGGATSSARKNRWDETPKTERDTPGHGSGWAETPRTDRGGDSIGETPTPGASKRKSRWDETPASQMGGSTPVLTPGKTPIGTPAMNMATPTPGHIMSMTPEQLQAWRWEREIDERNRPLSDEELDAMFPEGYKVLPPPAGYVPIRTPARKLTATPTPLGGMTGFHMQTEDRTMKSVNDQPSGNLPFLKPDDIQYFDKLLVDVDESTLSPEEQKERKIMKLLLKIKNGTPPMRKAALRQITDKAREFGAGPLFNQILPLLMSPTLEDQERHLLVKVIDRILYKLDDLVRPYVHKILVVIEPLLIDEDYYARVEGREIISNLAKAAGLATMISTMRPDIDNMDEYVRNTTARAFAVVASALGIPSLLPFLKAVCKSKKSWQARHTGIKIVQQIAILMGCAILPHLRSLVEIIEHGLVDEQQKVRTISALAIAALAEAATPYGIESFDSVLKPLWKGIRQHRGKGLAAFLKAIGYLIPLMDAEYANYYTREVMLILIREFQSPDEEMKKIVLKVVKQCCGTDGVEANYIKTEILPPFFKHFWQHRMALDRRNYRQLVDTTVELANKVGAAEIISRIVDDLKDEAEQYRKMVMETIEKIMGNLGAADIDHKLEEQLIDGILYAFQEQTTEDSVMLNGFGTVVNALGKRVKPYLPQICGTVLWRLNNKSAKVRQQAADLISRTAVVMKTCQEEKLMGHLGVVLYEYLGEEYPEVLGSILGALKAIVNVIGMHKMTPPIKDLLPRLTPILKNRHEKVQENCIDLVGRIADRGAEYVSAREWMRICFELLELLKAHKKAIRRATVNTFGYIAKAIGPHDVLATLLNNLKVQERQNRVCTTVAIAIVAETCSPFTVLPALMNEYRVPELNVQNGVLKSLSFLFEYIGEMGKDYIYAVTPLLEDALMDRDLVHRQTASAVVQHMSLGVYGFGCEDSLNHLLNYVWPNVFETSPHVIQAVMGALEGLRVAIGPCRMLQYCLQGLFHPARKVRDVYWKIYNSIYIGSQDALIAHYPRIYNDDKNTYIRYDLDYIL
On to B1, for which, in assay [2], the binding entry is listed as “binds”.
